According to publication doi:10.1101/575241:

B1: Ubc13 (enzyme, UniProt P52490 1-153)
chain: MASLPKRIIKETEKLVSDPVPGITAEPHDDNLRYFQVTIEGPEQSPYEDGIFELELYLPDDYPMEAPKVRFLTKIYHPNIDRLGRICLDVLKTNWSPALQIRTVLLSIQALLASPNPNDPLANDVAEDWIKNEQGAKAKAREWTKLYAKKKPE
B2: Mms2 (protein, UniProt P53152 1-137)
chain: MSKVPRNFRLLEELEKGEKGFGPESCSYGLADSDDITMTKWNGTILGPPHSNHENRIYSLSIDCGPNYPDSPPKVTFISKINLPCVNPTTGEVQTDFHTLRDWKRAYTMETLLLDLRKEMATPANKKLRQPKEGETF

Biological target: U. maydis Upa1 (aa 970-1287) (U. maydis)
Experiment: two-hybrid

Binder	binding
B1	binds
B2	binds weakly

Results are given in words; binding and its absence hold for the method and conditions named. Binding calls can cover weak binding; strength is not graded here.
